Experimental findings from publication PMC11797056, “The ATPase activity of yeast chromosome axis protein Hop1 affects the frequency of meiotic crossovers” (Nucleic Acids Research, 2024) are described below.

The target of the experiment is untagged Hop1-CTD (S. cerevisiae). The experiment is described as follows: far-Western, overlay or dot blot; increasing concentrations of untagged Hop1-CTD (or MsRecA) spotted on nitrocellulose; probed with purified Hop1 HORMA in blocking buffer (25 mM HEPES pH 7.5, 100 mM NaCl, 1 mM EDTA, 5% skimmed milk) for 12 h at 4°C; detected with anti-His antibodies; both purified.

Results are given in words; binding and its absence hold for the method and conditions named. Binding calls can cover weak binding; strength is not graded here.

B1: Hop1 HORMA domain (domain or fragment, UniProt P20050 20-250)
chain: EQSQKLLQTMLTMSFGCLAFLRGLFPDDIFVDQRFVPEKVEKNYNKQNTSQNNSIKIKTLIRGKSAQADLLLDWLEKGVFKSIRLKCLKALSLGIFLEDPTDLLENYIFSFDYDEENNVNINVNLSGNKKGSKNADPENETISLLDSRRMVQQLMRRFIIITQSLEPLPQKKFLTMRLMFNDNVDEDYQPELFKDATFDKRATLKVPTNLDNDAIDVGTLNTKHHKVALSV
modifications: Red-tris-NTA label (in the MST only)
As for B1, the binding result is “binds”.
